Structures can show the parent of a compound that is named as a salt. Some of these results come from one statement about several compounds together.
molecular target: T1, human recombinant P2X7 receptors (Homo sapiens, UniProt Q99572); assay: Fluorescent Imaging Plate Reader (FLIPR) Ca Assay; type: cell-based; details: HEK293 or U-2OS cells expressing human P2X7; 60 μM BzATP; or a slightly modified version of the assay
T1 construct: expressed in transfected cells
T1 sequence (Q99572 1-595): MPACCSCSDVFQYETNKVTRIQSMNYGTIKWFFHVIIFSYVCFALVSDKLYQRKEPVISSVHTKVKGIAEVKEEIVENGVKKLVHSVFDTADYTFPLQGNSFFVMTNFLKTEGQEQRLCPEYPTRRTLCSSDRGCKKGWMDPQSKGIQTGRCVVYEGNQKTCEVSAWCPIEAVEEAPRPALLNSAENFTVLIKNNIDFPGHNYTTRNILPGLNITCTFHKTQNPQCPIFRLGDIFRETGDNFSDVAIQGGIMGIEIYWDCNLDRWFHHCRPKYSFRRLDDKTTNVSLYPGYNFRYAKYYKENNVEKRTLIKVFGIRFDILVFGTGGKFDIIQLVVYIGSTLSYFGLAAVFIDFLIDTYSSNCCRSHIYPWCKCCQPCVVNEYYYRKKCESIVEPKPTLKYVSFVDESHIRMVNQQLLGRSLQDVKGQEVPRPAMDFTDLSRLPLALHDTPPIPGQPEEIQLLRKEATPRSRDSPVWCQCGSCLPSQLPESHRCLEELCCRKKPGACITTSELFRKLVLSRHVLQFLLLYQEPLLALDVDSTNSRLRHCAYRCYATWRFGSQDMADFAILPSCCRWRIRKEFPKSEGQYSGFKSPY

pIC50 in the FLIPR Ca Assay (blocking BzATP responses), ≥ 4.8:
O=C(c1cccc(C(F)(F)F)c1Cl)N1CCn2c(nc(Cl)c2Br)C1 [Example 33, 3-Bromo-2-chloro-7-{[2-chloro-3-(trifluoromethyl)phenyl]carbonyl}-5,6,7,8-tetrahydroimidazo[1,2-a]pyrazine]
O=C(c1cccc(C(F)(F)F)c1Cl)N1CCn2ccnc2C1 [Example 1, 7-{[2-Chloro-3-(trifluoromethyl)phenyl]carbonyl}-5,6,7,8-tetrahydroimidazo[1,2-a]pyrazine]
Cl.O=C(c1cccc(C(F)(F)F)c1Cl)N1CCn2c(-c3cccc(C(F)(F)F)c3Cl)cnc2C1 [Example 24, 3-[2-chloro-3-(trifluoromethyl)phenyl]-7-{[2-chloro-3-(trifluoromethyl)phenyl]carbonyl}-5,6,7,8-tetrahydroimidazo[1,2-a]pyrazine hydrochloride]
Cl.O=C(c1cccc(C(F)(F)F)c1Cl)N1CCn2cc(-c3ccccc3)nc2C1 [Example 14, 7-{[2-chloro-3-(trifluoromethyl)phenyl]carbonyl}-2-phenyl-5,6,7,8-tetrahydroimidazo[1,2-a]pyrazine hydrochloride]
O=C(c1ccc(Cl)cc1Cl)N1CCn2cc(C(F)(F)F)nc2C1 [Example 3, 7-[(2,4-Dichlorophenyl)carbonyl]-2-(trifluoromethyl)-5,6,7,8-tetrahydroimidazo[1,2-a]pyrazine]
Cl.O=C(c1cccc(C(F)(F)F)c1Cl)N1CCn2c(-c3cccnc3)cnc2C1 [Example 23, a hydrochloride salt (n•HCl) of 7-{[2-chloro-3-(trifluoromethyl)phenyl]carbonyl}-3-(3-pyridinyl)-5,6,7,8-tetrahydroimidazo[1,2-a]pyrazine]
Cc1cn2c(n1)CN(C(=O)c1cccc(C(F)(F)F)c1Cl)CC2 [Example 11, 7-{[2-chloro-3-(trifluoromethyl)phenyl]carbonyl}-2-methyl-5,6,7,8-tetrahydroimidazo[1,2-a]pyrazine]
O=C(c1cccc(C(F)(F)F)c1Cl)N1CCn2c(nc(C(F)(F)F)c2Br)C1 [Example 19, 3-Bromo-7-{[2-chloro-3-(trifluoromethyl)phenyl]carbonyl}-2-(trifluoromethyl)-5,6,7,8-tetrahydroimidazo[1,2-a]pyrazine]
O=C(c1cccc(C(F)(F)F)c1Cl)N1CCn2c(I)cnc2C1 [Example 21, 7-{[2-chloro-3-(trifluoromethyl)phenyl]carbonyl}-3-iodo-5,6,7,8-tetrahydroimidazo[1,2-a]pyrazine]
Cl.O=C(c1cccc(C(F)(F)F)c1Cl)N1CCn2c(-c3ccccc3)cnc2C1 [Example 4, 7-{[2-chloro-3-(trifluoromethyl)phenyl]carbonyl}-3-phenyl-5,6,7,8-tetrahydroimidazo[1,2-a]pyrazine hydrochloride]
Cl.O=C(c1ccc(Cl)cc1Cl)N1CCn2c(-c3ccccc3)cnc2C1 [Example 5, 7-[(2,4-dichlorophenyl)carbonyl]-3-phenyl-5,6,7,8-tetrahydroimidazo[1,2-a]pyrazine hydrochloride]
Cl.O=C(c1cccc(C(F)(F)F)c1Cl)N1CCn2c(-c3ccc(F)cc3)cnc2C1 [Example 22, 7-{[2-Chloro-3-(trifluoromethyl)phenyl]carbonyl}-3-(4-fluorophenyl)-5,6,7,8-tetrahydroimidazo[1,2-a]pyrazine hydrochloride]
O=C(c1c(Cl)cc(Cl)cc1Cl)N1CCn2c(-c3ccccc3)cnc2C1 [Example 17, 3-Phenyl-7-[(2,4,6-trichlorophenyl)carbonyl]-5,6,7,8-tetrahydroimidazo[1,2-a]pyrazine hydrochloride]
CC(C)(C)c1cn2c(n1)CN(C(=O)c1cccc(C(F)(F)F)c1Cl)CC2.Cl [Example 13, 7-{[2-chloro-3-(trifluoromethyl)phenyl]carbonyl}-2-(1,1-dimethylethyl)-5,6,7,8-tetrahydroimidazo[1,2-a]pyrazine hydrochloride]
Cl.O=C(c1ccc(F)cc1Cl)N1CCn2c(-c3ccccc3)cnc2C1 [Example 10, 7-[(2-chloro-4-fluorophenyl)carbonyl]-3-phenyl-5,6,7,8-tetrahydroimidazo[1,2-a]pyrazine hydrochloride]
Cl.O=C(c1cccc(Cl)c1Cl)N1CCn2c(-c3ccccc3)cnc2C1 [Example 9, 7-[(2,3-Dichlorophenyl)carbonyl]-3-phenyl-5,6,7,8-tetrahydroimidazo[1,2-a]pyrazine hydrochloride]
Cl.O=C(c1cccc(C(F)(F)F)c1Cl)N1CCn2c(-c3ccc(Cl)cc3)cnc2C1 [Example 25, 3-(4-chlorophenyl)-7-{[2-chloro-3-(trifluoromethyl)phenyl]carbonyl}-5,6,7,8-tetrahydroimidazo[1,2-a]pyrazine hydrochloride]
Cc1cnc2n1CCN(C(=O)c1cccc(C(F)(F)F)c1Cl)C2 [Example 27, 7-{[2-Chloro-3-(trifluoromethyl)phenyl]carbonyl}-3-methyl-5,6,7,8-tetrahydroimidazo[1,2-a]pyrazine hydrochloride]
CCc1cn2c(n1)CN(C(=O)c1cccc(C(F)(F)F)c1Cl)CC2 [Example 6, 7-{[2-chloro-3-(trifluoromethyl)phenyl]carbonyl}-2-ethyl-5,6,7,8-tetrahydroimidazo[1,2-a]pyrazine]
O=C(c1cccc(C(F)(F)F)c1Cl)N1CCn2c(nc(Br)c2-c2ccc(F)cc2)C1 [Example 34, 2-Bromo-7-{[2-chloro-3-(trifluoromethyl)phenyl]carbonyl}-3-(4-fluorophenyl)-5,6,7,8-tetrahydroimidazo[1,2-a]pyrazine]
Cl.O=C(c1ccccc1Cl)N1CCn2c(-c3ccccc3)cnc2C1 [Example 8, 7-[(2-chlorophenyl)carbonyl]-3-phenyl-5,6,7,8-tetrahydroimidazo[1,2-a]pyrazine hydrochloride]
CCc1cn2c(n1)CN(C(=O)c1ccc(Cl)cc1Cl)CC2 [Example 7, 7-[(2,4-dichlorophenyl)carbonyl]-2-ethyl-5,6,7,8-tetrahydroimidazo[1,2-a]pyrazine]
O=C(c1ccc(F)cc1Cl)N1CCn2c(Br)cnc2C1 [Example 30, 3-Bromo-7-[(2-chloro-4-fluorophenyl)carbonyl]-5,6,7,8-tetrahydroimidazo[1,2-a]pyrazine]
O=C(c1cccc(C(F)(F)F)c1Cl)N1CCn2c(nc(C(F)(F)F)c2-c2ccccc2)C1 [Example 26, 7-{[2-Chloro-3-(trifluoromethyl)phenyl]carbonyl}-3-phenyl-2-(trifluoromethyl)-5,6,7,8-tetrahydroimidazo[1,2-a]pyrazine]
O=C(c1cccc(C(F)(F)F)c1Cl)N1CCn2c(Br)cnc2C1 [Example 18, 3-Bromo-7-{[2-chloro-3-(trifluoromethyl)phenyl]carbonyl}-5,6,7,8-tetrahydroimidazo[1,2-a]pyrazine hydrochloride]
Cc1cn2c(n1)CN(C(=O)c1cccc(Cl)c1Cl)CC2 [Example 12, 7-[(2,3-dichlorophenyl)carbonyl]-2-methyl-5,6,7,8-tetrahydroimidazo[1,2-a]pyrazine]
O=C(c1cccc(C(F)(F)F)c1Cl)N1CCn2c(nc(I)c2I)C1 [Example 20, 7-{[2-chloro-3-(trifluoromethyl)phenyl]carbonyl}-2,3-diiodo-5,6,7,8-tetrahydroimidazo[1,2-a]pyrazine]
O=C(c1cccc(C(F)(F)F)c1Cl)N1CCn2cc(C(F)(F)F)nc2C1 [Example 2, 7-{[2-Chloro-3-(trifluoromethyl)phenyl]carbonyl}-2-(trifluoromethyl)-5,6,7,8-tetrahydroimidazo[1,2-a]pyrazine]
